From paper PMC7956376
Results are given in words; binding and its absence hold for the method and conditions named. Sequences can lack the tags named with a protein.

Target: T1, StSN2 full length fused to pGBKT7 (SN2-BD) (potato (Solanum tuberosum, cultivar Chuanyu 10)) (UniProt Q93X17)
T1 sequence: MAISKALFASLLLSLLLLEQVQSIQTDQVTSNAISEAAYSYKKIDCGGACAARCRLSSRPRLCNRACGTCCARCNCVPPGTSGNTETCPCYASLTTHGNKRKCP
Assay: two-hybrid; yeast two-hybrid of SN2 with DIM/DWF1, told only in the discussion; no figure and no construct named

binding: no binding
Substance: DIM/DWF1 in the yeast two-hybrid assay
